Biological target: Sulfotransferase 1C4 (Homo sapiens, UniProt O75897)
Experiment: Major substrate of human cytosolic sulfotransferase SULT1C4
Type: ADME

By UniProt entry, the sequences of proteins in these tests, tags left out. Where a name states a change or a piece, a line headed by the entry shows the natural chain unless it says otherwise.
UniProt O75897: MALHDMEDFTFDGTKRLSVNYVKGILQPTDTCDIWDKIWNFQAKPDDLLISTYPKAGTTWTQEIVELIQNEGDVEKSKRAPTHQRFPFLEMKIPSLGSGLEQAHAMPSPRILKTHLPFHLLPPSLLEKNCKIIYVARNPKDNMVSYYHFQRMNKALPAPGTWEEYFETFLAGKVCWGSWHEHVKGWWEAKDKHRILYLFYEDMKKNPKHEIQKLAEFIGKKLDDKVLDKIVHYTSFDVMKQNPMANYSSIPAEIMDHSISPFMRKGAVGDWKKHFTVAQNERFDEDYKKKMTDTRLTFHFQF

Question: `CCCCCCCCc1ccc(O)cc1` [4-OCTYLPHENOL] was tested. Which Activity did it give?
Answer: The Activity was “Substrate”.
